# Data from patent publication US20250275986A1, “COMBINATION OF A KETONE BODY OR KETOGENIC COMPOUND WITH AN ANALGESIC OR ANTIOXIDANT” (KETOSWISS AG, priority 2021, published 2025).
# For some assays here: At least one structure is not confirmed: it was looked up by name or label, or the drawing left a doubt. Some results were stated once for a whole list of compounds, not compound by compound. Some compounds share one range, which may span the group rather than tell each member.
# Columns and labels:
# [1] = test system: headache during an acute migraine attack; assay: Intensity of the headache (visual analogue scale 0 to 10) during acute migraine attacks in one migraine patient after intake of the substance(s); assay type: in vivo, human; conditions: for time for which the intensity of the headache was decreased / ameliorated: in average over the attacks of the group; for time within which the headache returned and/or got stronger: substance administered alone, taken when intensity about 0 to about 4; for time for which recurrence of the headache was prevented: substance alone, at best
# Procedure: During the course of the trial, the patient had 17 recorded acute migraine attacks which were treated by either one of the following nine treatment regimes: • 1. 13 g flavoured mix of β-hydroxbutyrate (βHB) mineral salts termed “MigraKet” (a ketone body) • 2. 500 mg acetylsalicylic acid (a simple analgesic) • 3. 400 mg ibuprofen (a simple analgesic) • 4. 13 g MigraKet+500 mg acetylsalicylic acid (combination of a ketone body and a simple analgesic) • 5. 13 g MigraKet+400 mg ibuprofen (combination of a ketone body and a simple analgesic) • 6. 2.5 mg frovatriptan (a triptan) • 7. 13 g MigraKet+2.5 mg frovatriptan (combination of a ketone body and a triptan) • 8. 9 mg melatonin • 9. 13 g MigraKet+9 mg melatonin (combination of a ketone body and an antioxidant such as melatonin) The “MigraKet” consisted of:
# 10g of a sodium, potassium, magnesium and calcium D-βHB mineral mix in a 1:1:2:2 ratio, and 3g of flavour (malic acid and natural lemon and lime flavour sweetend by stevia), dissolved in 0.51 of still water.
# The intensity of the headache (pain) was recorded at the time of intake of the substance(s) (0h), and at five subsequent time-points during the course of one day (2h, 4 h, 8h, 12 h, 24h after substance intake). The intensity of the headache (pain) was categorized on a visual analogue scale from 0 (“no pain”) to 10 (“worst pain imaginable”).
# For further evaluation, the treatment regimes were grouped into the following three groups: • 1. MigraKet (ketone body only) • 2. Acetylsalicylic acid or ibuprofen (simple analgesic only) • 3. MigraKet+acetylsalicylic acid or ibuprofen (combination of ketone body and simple analgesic)
# migraine attacks = conditions: in vivo; cited from earlier work
Structure (SMILES),time for which the intensity of the headache was decreased / ameliorated [1],time within which the headache returned and/or got stronger [1],time for which recurrence of the headache was prevented [1],migraine attacks with effective pain relief (migraine attacks)
"CC(=O)Oc1ccccc1C(=O)O [Acetylsalicylic acid, acetylsalicylic acid]",4 to 8 h,4 to 12 h,4 to 12 h,–
"CN[C@@H]1CCc2[nH]c3ccc(C(N)=O)cc3c2C1 [Frovatriptan, frovatriptan]",–,4 to 12 h,–,–
"CC(C)Cc1ccc(C(C)C(=O)O)cc1 (centres unmarked) [Ibuprofen, isobutylphenylpropionic acid]",4 to 8 h,4 to 12 h,4 to 12 h,about 50%
